Laboratory results: PubChem BioAssay AID602 (SRMLSC, 2007)
The other results are listed elsewhere or left out.

Test: reversal of MRP1-mediated doxorubicin resistance, primary screen, H69AR cells, doxorubicin co-treatment (AID 602)
Conditions: CellTiter-Glo, 72 h, at 10 µM
[1] = H69AR cells + 2 uM doxorubicin, measured here: viability with 2 uM doxorubicin, stronger effect = lower value
[2] = H69AR cells, measured here: cytotoxicity without doxorubicin

| SMILES | viability [1] | viability [2] |
| --- | --- | --- |
| O=C(OC1CN2CCC1CC2)C12CC3CC(CC(C3)C1)C2 (stereo unspecified) | 73.2% | 96.3% |
| COc1ccc(OP(C)(=O)Nc2cccc(F)c2)cc1 (stereo unspecified) | 88.4% | 96.7% |
| Cc1ccc(NP(C)(=O)Oc2ccccc2)c(C)c1 (stereo unspecified) | 81% | 101% |
| COc1ccccc1OP(C)(=O)Nc1ccc(C)cc1 (stereo unspecified) | 92.5% | 82.8% |
| ClCCSc1nnc(-c2cccnc2)o1 | 87.6% | 93.1% |
| CP(=S)(Nn1cnnc1)Oc1ccccc1 (stereo unspecified) | 93.5% | 86.1% |
| CP(=O)(Nc1ccccn1)Oc1ccc(Cl)cc1 (stereo unspecified) | 97% | 101% |
| CCC(C)N(CC(C)C)C(=S)SC(NC(C)=O)C(Cl)(Cl)Cl (stereo unspecified) | 82.9% | 70.8% |
| CCOP(C)(=S)SCC(=O)NC(C)C(=O)O (stereo unspecified) | 85.2% | 91.7% |
| CP(=O)(NC(=O)Nc1ccccc1)Oc1ccccc1 (stereo unspecified) | 92.9% | 96.7% |
| O=C(COc1ccccc1)OC1CN2CCC1CC2 (stereo unspecified) | 108% | 104% |
| COP1(=S)c2c(C)nn(CCC#N)c2N=C(c2ccc(F)cc2)N1C (stereo unspecified) | 82.8% | 62% |
| Cc1nc2ccc3ccccc3c2s1.O=[N+]([O-])c1cc([N+](=O)[O-])c(O)c([N+](=O)[O-])c1 | 92.8% | 87.2% |
| CC1(CBr)Cn2c(nc3ccccc3c2=O)S1 (stereo unspecified) | 81.1% | 87.7% |
| Clc1n[nH]nc1-c1nn[nH][15n]1 | 100% | 105% |
| O=P1(Nc2ccccn2)COc2ccccc2OC1 | 83.3% | 69.6% |
| O=P1(Nc2ccc(Br)cn2)COc2ccccc2OC1 | 91% | 98.3% |
| Cc1ccc(OCC(=O)OC2CN3CCC2CC3)cc1 (stereo unspecified) | 99.1% | 94.1% |
| O=P1(Nc2ncccn2)COc2ccccc2OC1 | 105% | 94.2% |
| COc1ccccc1OP(C)(=O)Nc1c(C)cccc1C (stereo unspecified) | 94.6% | 96.5% |

| SMILES | viability [1] | viability [2] |
| --- | --- | --- |
| Cc1nn(-c2ccccc2)c2c1P(=O)(N1CCOCC1)N(C)C(c1ccccc1)=N2 (stereo unspecified) | 78.4% | 87.8% |
| CCOP1(=S)c2c(C)nn(CCC#N)c2N=C(c2ccc(F)cc2)N1C (stereo unspecified) | 66.9% | 66.7% |
| CCOP1(=S)c2c(C)nn(CCC#N)c2N=C(c2ccccc2F)N1C (stereo unspecified) | 70.4% | 68.9% |
| Cc1ccc(C)c(NP(C)(=O)Oc2ccccc2)c1 (stereo unspecified) | 102% | 97.1% |
| Cc1cc(C)cc(OP(C)(=O)Nc2ccccn2)c1 (stereo unspecified) | 108% | 100% |
| Cc1cc(C)cc(OP(C)(=O)Nc2ccc(C)cc2C)c1 (stereo unspecified) | 82.7% | 95.5% |
| Cc1cccc(OCC(=O)OC2CN3CCC2CC3)c1 (stereo unspecified) | 95.3% | 95.3% |
| CP(=O)(Nc1ccccc1F)Oc1ccccc1 (stereo unspecified) | 89.7% | 93.2% |
| O=P1(Nc2nc3ccc(Cl)cc3s2)COc2ccccc2O1 (stereo unspecified) | 89.8% | 103% |
| CP(=O)(Nc1ccccc1)Oc1ccc(F)cc1 (stereo unspecified) | 101% | 96.8% |
| COC(=O)c1cc2c(s1)N=C(c1ccccc1)N(C)P2(=O)N1CCOCC1 (stereo unspecified) | 86.9% | 85.2% |
| CCN(CC)CCCOC(=O)C(O)(c1ccccc1)C1CCCCC1 (stereo unspecified) | 96.4% | 83.8% |
| O=C(OC1CN2CCC1CC2)c1cccc(Cl)c1 (stereo unspecified) | 103% | 95.6% |
| CN(C)CCOC(=O)C(O)(c1ccccc1)C1CCCCC1 (stereo unspecified) | 88.1% | 98% |
| Cc1ccccc1NP(C)(=O)Nc1ccccc1C | 104% | 90.5% |
| CP(=O)(Nc1ccc2c(c1)OCCO2)Oc1ccccc1 (stereo unspecified) | 93.5% | 95% |
| c1nnnn1CCn1cnnn1 | 90.5% | 89.2% |
| O=P(Nc1nccs1)(c1ccccc1)c1ccccc1 | 88.1% | 88.4% |
| CC1CCN(C(=O)Oc2c(Cl)cc(Cl)c3cccnc23)CC1 | 60.3% | 83.9% |
| CC(C)(C)c1ccc(OP(C)(=O)O)cc1 | 103% | 101% |

| SMILES | viability [1] | viability [2] |
| --- | --- | --- |
| CP(=O)(Nc1ccc(Cl)cc1)Oc1ccc(F)cc1 (stereo unspecified) | 99.5% | 106% |
| COc1ccccc1OP(C)(=O)Nc1c(C)n(C)n(-c2ccccc2)c1=O (stereo unspecified) | 85.9% | 91.3% |
| O=[N+]([O-])c1cccc2n[nH]nc12 | 93% | 97.6% |
| CCc1nc2c(n1)c1c(non1O)c1c2no[n+]1[O-] | 0.97% | 2.17% |
| CP(=O)(Oc1ccccc1)N1CCOC1=O (stereo unspecified) | 97.6% | 104% |
| CP(=O)(OC12CC3CC(CC(C3)C1)C2)OC12CC3CC(CC(C3)C1)C2 | 70.5% | 96.6% |
| Cc1nc2ccc3ccccc3c2o1.O=[N+]([O-])c1cc([N+](=O)[O-])c(O)c([N+](=O)[O-])c1 | 92.6% | 100% |
| COc1ccccc1OP(C)(=O)Nc1ccc(C)c(C)c1 (stereo unspecified) | 85.1% | 89.9% |
| CCOP(=O)(Nc1ccccc1)OCC | 96.7% | 94.6% |
| COc1ccccc1OP(C)(=O)Nc1ccc(C)cc1C (stereo unspecified) | 75.2% | 78.8% |
| CP(=O)(Nc1ccccn1)Oc1ccccc1 (stereo unspecified) | 103% | 89.9% |
| CCc1ccc(OP(C)(=O)O)cc1 | 109% | 93.6% |
| Cc1c(NP(C)(=O)Oc2ccc(C(C)C)cc2)c(=O)n(-c2ccccc2)n1C (stereo unspecified) | 105% | 89.4% |
| Cc1c2non([O-])c-2c(C)[n+](=O)[n+]1[O-] | 0.79% | 0.46% |
| Oc1ccccc1CNc1ccccn1 | 97.1% | 98.8% |
| COc1ccc(OP(C)(=O)Nc2ccccn2)cc1 (stereo unspecified) | 104% | 97.3% |
| CN(C)CCOC(=O)C(O)(c1ccccc1)C1CCCC1 (stereo unspecified) | 83.1% | 104% |
| CN1CCCC(OC(=O)C(c2ccccc2)c2ccccc2)C1 (stereo unspecified) | 85% | 79.2% |
